Experimental data taken from the supplement of paper PMC10849652.
The other results are listed elsewhere or left out.

Amino acid sequences for entries named in this document (tags omitted). A change or cut given only in a name is not applied to a line headed by its entry.
UniProt Q9UHD9, whole entry, looked up: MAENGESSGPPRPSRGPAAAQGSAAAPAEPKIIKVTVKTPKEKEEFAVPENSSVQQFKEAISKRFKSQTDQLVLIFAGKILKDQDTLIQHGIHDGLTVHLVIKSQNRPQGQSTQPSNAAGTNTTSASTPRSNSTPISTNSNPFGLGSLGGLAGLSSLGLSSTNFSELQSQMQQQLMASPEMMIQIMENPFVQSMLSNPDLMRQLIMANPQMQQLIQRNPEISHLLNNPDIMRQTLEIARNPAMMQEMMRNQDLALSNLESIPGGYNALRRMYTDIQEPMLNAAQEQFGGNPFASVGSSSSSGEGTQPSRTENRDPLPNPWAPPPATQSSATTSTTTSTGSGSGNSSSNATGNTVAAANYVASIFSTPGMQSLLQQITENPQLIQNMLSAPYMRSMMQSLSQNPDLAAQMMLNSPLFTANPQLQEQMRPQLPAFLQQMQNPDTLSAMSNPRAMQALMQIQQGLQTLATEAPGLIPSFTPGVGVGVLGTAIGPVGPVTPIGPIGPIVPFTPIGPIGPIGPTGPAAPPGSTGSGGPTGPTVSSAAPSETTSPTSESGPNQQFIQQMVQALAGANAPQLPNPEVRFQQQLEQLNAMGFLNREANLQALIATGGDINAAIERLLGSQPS
UniProt Q9H4B7, whole entry, looked up: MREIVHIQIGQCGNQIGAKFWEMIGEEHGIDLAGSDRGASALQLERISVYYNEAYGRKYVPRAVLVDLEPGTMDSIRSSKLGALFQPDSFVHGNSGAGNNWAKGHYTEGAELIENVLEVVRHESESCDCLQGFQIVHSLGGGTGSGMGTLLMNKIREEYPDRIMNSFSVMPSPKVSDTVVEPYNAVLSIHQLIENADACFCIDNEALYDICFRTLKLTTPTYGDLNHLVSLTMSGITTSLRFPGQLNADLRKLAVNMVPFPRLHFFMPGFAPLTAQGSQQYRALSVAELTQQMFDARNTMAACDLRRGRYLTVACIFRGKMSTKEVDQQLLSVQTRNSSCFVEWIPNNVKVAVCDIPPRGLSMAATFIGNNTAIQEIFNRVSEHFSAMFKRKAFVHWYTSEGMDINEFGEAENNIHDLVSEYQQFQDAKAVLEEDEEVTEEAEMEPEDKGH
UniProt Q9NNW7, whole entry, looked up: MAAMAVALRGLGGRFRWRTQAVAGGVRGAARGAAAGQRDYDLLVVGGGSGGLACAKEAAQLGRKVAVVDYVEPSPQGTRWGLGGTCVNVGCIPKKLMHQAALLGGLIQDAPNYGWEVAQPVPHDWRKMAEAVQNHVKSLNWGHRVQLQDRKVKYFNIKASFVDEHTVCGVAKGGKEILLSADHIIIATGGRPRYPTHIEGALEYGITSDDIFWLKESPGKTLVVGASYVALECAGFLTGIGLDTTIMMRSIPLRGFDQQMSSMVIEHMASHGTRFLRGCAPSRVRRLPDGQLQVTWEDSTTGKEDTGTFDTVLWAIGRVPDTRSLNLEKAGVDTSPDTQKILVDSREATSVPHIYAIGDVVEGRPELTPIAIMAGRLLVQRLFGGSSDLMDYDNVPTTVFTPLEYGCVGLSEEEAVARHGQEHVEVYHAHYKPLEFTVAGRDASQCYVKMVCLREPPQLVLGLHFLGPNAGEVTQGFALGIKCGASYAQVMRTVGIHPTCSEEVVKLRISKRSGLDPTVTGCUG
UniProt Q01081: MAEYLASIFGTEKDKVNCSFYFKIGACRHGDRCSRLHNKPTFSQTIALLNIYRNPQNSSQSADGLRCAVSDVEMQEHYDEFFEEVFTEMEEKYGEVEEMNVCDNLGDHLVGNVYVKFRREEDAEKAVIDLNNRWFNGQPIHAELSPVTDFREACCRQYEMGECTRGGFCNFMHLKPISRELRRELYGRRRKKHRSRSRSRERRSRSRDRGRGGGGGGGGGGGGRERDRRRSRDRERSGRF
UniProt Q712K3: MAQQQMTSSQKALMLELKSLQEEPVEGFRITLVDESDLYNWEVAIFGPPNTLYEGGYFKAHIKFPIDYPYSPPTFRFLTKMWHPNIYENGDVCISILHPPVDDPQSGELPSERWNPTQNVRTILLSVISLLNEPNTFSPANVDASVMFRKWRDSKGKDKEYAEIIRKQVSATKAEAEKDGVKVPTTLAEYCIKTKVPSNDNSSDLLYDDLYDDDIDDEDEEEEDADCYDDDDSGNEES
UniProt Q16763: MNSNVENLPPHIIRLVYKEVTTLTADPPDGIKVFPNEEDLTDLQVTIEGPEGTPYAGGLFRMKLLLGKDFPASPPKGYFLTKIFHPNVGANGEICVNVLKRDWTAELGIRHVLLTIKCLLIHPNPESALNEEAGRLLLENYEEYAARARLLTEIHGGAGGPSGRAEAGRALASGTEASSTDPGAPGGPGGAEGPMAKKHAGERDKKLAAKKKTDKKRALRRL
UniProt P26368, whole entry, looked up: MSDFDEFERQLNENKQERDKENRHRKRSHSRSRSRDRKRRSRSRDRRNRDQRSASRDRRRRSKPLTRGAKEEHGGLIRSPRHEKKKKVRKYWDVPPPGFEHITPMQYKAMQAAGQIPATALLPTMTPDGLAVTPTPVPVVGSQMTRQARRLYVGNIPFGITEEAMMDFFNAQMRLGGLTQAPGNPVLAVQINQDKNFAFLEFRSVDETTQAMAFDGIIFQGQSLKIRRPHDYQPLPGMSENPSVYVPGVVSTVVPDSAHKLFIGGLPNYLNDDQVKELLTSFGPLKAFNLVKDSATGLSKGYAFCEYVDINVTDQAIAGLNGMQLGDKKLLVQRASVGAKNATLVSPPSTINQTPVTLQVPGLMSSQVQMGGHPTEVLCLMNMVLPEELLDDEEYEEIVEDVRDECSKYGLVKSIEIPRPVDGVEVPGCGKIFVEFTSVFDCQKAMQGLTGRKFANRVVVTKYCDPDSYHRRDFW
UniProt Q8TBC4: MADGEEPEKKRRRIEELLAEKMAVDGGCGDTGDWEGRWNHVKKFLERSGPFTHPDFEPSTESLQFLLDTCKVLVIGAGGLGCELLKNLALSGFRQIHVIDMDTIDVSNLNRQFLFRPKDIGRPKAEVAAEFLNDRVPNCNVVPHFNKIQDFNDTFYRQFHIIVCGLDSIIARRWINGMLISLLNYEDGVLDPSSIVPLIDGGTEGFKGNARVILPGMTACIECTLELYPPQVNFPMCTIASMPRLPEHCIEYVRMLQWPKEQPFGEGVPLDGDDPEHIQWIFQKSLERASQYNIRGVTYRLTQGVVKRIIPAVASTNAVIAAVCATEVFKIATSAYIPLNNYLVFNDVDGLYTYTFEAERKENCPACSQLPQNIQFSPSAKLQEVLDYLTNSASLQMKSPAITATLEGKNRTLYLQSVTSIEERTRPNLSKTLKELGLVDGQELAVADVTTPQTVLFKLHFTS
UniProt P10599: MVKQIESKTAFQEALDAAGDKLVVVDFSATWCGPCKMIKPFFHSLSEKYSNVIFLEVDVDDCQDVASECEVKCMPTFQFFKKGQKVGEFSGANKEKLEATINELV
UniProt Q5JXB2: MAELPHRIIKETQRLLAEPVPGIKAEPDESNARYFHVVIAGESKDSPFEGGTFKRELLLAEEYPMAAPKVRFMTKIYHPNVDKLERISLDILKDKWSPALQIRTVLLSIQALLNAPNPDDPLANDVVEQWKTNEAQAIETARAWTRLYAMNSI
UniProt P07437, whole entry, looked up: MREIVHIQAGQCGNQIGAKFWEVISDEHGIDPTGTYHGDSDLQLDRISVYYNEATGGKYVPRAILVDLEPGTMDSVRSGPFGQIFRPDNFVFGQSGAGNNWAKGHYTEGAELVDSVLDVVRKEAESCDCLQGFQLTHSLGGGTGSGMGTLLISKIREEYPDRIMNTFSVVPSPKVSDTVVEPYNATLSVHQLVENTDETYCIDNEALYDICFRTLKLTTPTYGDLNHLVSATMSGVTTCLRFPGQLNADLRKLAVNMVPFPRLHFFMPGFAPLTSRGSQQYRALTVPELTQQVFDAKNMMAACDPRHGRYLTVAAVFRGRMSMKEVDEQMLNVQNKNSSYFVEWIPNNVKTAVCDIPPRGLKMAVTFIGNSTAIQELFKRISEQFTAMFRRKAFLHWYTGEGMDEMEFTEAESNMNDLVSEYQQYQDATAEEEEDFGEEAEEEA
UniProt Q5T6F2: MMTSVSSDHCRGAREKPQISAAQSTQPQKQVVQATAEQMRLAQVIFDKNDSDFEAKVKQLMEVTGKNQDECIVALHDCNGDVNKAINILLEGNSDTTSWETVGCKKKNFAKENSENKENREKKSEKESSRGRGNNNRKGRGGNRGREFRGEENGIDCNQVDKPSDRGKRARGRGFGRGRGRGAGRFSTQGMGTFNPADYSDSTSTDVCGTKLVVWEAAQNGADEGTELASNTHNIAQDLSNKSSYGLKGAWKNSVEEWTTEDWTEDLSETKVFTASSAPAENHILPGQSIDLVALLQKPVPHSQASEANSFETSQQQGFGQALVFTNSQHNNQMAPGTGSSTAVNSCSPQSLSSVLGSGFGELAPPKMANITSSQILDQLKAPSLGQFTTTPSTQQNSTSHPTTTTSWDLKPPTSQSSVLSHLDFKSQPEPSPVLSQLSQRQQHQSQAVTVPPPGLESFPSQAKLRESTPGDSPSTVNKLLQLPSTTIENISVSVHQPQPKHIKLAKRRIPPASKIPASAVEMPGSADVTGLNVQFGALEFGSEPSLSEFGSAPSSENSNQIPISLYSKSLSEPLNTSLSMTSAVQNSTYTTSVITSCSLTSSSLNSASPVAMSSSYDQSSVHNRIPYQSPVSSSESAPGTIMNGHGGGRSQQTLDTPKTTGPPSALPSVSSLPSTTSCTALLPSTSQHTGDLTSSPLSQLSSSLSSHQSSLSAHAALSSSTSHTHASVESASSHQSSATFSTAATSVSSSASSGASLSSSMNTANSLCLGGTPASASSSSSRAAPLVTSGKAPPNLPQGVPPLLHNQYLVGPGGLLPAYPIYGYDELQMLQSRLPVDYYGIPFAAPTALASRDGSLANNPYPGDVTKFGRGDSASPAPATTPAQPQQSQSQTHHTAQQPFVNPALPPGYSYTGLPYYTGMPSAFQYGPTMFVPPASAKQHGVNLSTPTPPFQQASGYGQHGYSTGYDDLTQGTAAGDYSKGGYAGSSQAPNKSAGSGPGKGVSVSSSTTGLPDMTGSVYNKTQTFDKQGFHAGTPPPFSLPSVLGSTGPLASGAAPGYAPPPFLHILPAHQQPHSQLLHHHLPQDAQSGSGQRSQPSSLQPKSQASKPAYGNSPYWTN
UniProt Q9BZX2: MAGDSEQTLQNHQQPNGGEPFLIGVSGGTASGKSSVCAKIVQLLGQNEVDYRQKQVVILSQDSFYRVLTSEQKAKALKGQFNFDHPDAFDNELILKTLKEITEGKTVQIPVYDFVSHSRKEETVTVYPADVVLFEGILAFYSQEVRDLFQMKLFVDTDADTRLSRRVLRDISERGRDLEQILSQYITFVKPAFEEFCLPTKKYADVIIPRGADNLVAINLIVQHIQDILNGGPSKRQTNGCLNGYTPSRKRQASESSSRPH
UniProt P61081: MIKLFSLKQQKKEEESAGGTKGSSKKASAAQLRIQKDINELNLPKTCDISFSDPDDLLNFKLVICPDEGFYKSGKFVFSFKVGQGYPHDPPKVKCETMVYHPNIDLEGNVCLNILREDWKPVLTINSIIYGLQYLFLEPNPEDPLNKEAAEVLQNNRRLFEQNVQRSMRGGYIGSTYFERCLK
UniProt Q15386: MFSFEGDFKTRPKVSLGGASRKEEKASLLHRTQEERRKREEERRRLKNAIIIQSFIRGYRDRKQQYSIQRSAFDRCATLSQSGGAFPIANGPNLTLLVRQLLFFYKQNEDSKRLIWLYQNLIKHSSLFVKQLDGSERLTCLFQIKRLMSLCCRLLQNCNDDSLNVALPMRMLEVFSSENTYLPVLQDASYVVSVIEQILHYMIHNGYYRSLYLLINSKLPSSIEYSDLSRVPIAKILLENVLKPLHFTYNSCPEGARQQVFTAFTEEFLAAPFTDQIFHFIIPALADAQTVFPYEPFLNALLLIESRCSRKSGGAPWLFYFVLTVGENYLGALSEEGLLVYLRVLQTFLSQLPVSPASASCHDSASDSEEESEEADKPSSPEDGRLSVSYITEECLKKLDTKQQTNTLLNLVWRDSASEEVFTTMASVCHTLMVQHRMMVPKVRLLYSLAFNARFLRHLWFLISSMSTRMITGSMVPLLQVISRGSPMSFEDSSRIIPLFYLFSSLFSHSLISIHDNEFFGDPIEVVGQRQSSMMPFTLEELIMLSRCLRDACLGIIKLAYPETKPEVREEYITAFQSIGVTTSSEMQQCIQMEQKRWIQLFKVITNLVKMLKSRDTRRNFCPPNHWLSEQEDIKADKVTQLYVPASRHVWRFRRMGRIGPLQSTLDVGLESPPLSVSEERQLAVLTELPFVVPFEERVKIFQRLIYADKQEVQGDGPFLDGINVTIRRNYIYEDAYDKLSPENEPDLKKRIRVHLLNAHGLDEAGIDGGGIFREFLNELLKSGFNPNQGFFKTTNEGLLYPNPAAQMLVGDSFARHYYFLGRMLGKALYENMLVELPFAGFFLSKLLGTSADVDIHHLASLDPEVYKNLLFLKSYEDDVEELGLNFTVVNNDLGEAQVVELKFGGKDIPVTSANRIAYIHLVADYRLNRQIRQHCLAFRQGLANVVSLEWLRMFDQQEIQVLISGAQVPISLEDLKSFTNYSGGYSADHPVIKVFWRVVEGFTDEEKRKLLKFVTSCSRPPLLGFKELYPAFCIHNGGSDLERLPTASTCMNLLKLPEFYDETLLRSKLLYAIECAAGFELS

Assays:
Test in all cases: log2 fold change, soluble protein after heating vs DMSO (PISA); higher = thermal stabilisation; K562 lysate, 10 uM; active = over 0.2 and 3.5 SD of the protein, either way, in both replicates (recomputed)
[1] = compound: NCC(=O)Nc1ccc(-n2nc(C(F)(F)F)cc2-c2ccc3c(ccc4ccccc43)c2)cc1
In short: (§1)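 K562 pellets were dounce-homogenised in PBS pH 7.4 containing 1 mM MgCl2, and the crude extract, at 1 mg/mL protein, was exposed to 10 μM compound for 30 min. Aliquots were heated for 3 min across 48°C-58°C, pooled, brought to 0.5% NP-40 at 4°C and spun at 21,000xg for 90 min, with the supernatant taken as soluble protein. TMTpro 16plex LC-MS/MS with equalised channel sums quantified that protein. Values are log-two fold changes in thermal stability relative to solvent controls, taken from duplicates.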

[2] = compound: O=C(CCCCCCC(=O)Nc1ccccc1)NO [vorinostat]
In short: as §1

[3] = compound: O=C(O)c1ccc2c(c1)nc(Nc1cccc(Cl)c1)c1ccncc12 [silmitasertib]
In short: as §1

[4] = compound: O=C1NC(=O)C(c2cnc3ccccn23)=C1c1cn2c3c(cc(F)cc13)CN(C(=O)N1CCCCC1)CC2
In short: as §1

[5] = compound: c1cn2cc(-c3ccc4cn[nH]c4c3)nc(Nc3ccc(N4CCOCC4)cc3)c2n1 [entospletinib]
In short: as §1

Measured: log2 fold change

UBE4A isoform 2 (UniProt Q14139)
active: [2] -0.257
inactive: [1] 0.007 | [3] 0.019 | [4] 0.029 | [5] 0.026

TUT7 (UniProt Q5VYS8)
inactive: [1] -0.059 | [2] -0.07 | [3] -0.002 | [4] 0 | [5] -0.036

UBE2E3 (UniProt Q969T4)
inactive: [1] 0.048 | [2] 0.022 | [3] 0.03 | [4] 0.003 | [5] -0.006

UBQLN2 (UniProt Q9UHD9)
inactive: [1] -0.065 | [2] 0.143 | [3] -0.027 | [4] 0.015 | [5] -0.016

TUBB1 (UniProt Q9H4B7)
inactive: [1] -0.038 | [3] -0.003 | [4] 0.033 | [5] 0.011
active: [2] -0.326

TUBB4B (UniProt P68371)
inactive: [1] 0.014 | [3] 0.024 | [4] -0.001 | [5] 0.005
active: [2] -0.712

TXLNA (UniProt P40222)
inactive: [1] 0.006 | [2] 0.054 | [3] -0.01 | [4] -0.008 | [5] 0.007

UBE4B isoform 4 (UniProt O95155)
inactive: [1] 0.008 | [2] -0.095 | [3] 0.013 | [4] 0.005 | [5] -0.012

TXNRD2 (UniProt Q9NNW7)
inactive: [1] -0.016 | [2] 0.125 | [3] -0.025 | [4] 0.029 | [5] 0.023

UBR7 (UniProt Q8N806)
inactive: [1] 0.01 | [2] 0.101 | [3] -0.022 | [4] -0.01 | [5] 0.002

TUT1 (UniProt Q9H6E5)
inactive: [1] 0.101 | [2] -0.062 | [3] 0.023 | [4] 0 | [5] -0.024

UBAP1 (UniProt Q9NZ09)
inactive: [1] -0.038 | [2] -0.094 | [3] -0.045 | [4] 0.024 | [5] -0.02

UBE2L6 (UniProt O14933)
inactive: [1] -0.071 | [3] 0.037 | [4] 0 | [5] -0.011
active: [2] -0.477

UBA1 (UniProt P22314)
inactive: [1] 0.018 | [3] 0.01 | [4] -0.003 | [5] 0.02
active: [2] -0.371

UBE2H (UniProt P62256)
inactive: [1] 0.023 | [2] 0.093 | [3] -0.003 | [4] -0.003 | [5] -0.012

TXNDC17 (UniProt Q9BRA2)
inactive: [1] -0.021 | [2] 0.174 | [3] 0 | [4] 0.01 | [5] 0.007

UBE3D (UniProt Q7Z6J8)
inactive: [1] -0.056 | [2] 0.028 | [3] -0.039 | [4] -0.003 | [5] 0.001

UBA6
inactive: [1] -0.005 | [2] -0.175 | [3] 0.015 | [4] -0.006 | [5] 0.009

UBA5 (UniProt Q9GZZ9)
inactive: [1] -0.023 | [2] -0.017 | [3] -0.012 | [4] 0.026 | [5] 0.006

TUBB2A (UniProt Q13885)
active: [2] -0.759
inactive: [1] 0.034 | [3] 0.016 | [4] -0.004 | [5] -0.012

TUFM (UniProt P49411)
inactive: [1] 0.016 | [2] -0.175 | [3] 0.045 | [4] 0.013 | [5] 0.027

UBE2L3 isoform 3 (UniProt P68036)
inactive: [1] 0.057 | [2] 0.057 | [3] -0.043 | [4] 0.019 | [5] -0.002

UBE2V2 (UniProt Q15819)
inactive: [1] -0.01 | [2] 0.119 | [3] -0.018 | [4] 0.004 | [5] -0.01

U2AF1 isoform 2 (UniProt Q01081)
inactive: [1] 0.003 | [2] -0.178 | [3] 0.01 | [4] 0.042 | [5] 0.039

TXNRD1 (UniProt Q16881)
inactive: [1] 0.023 | [2] 0.101 | [3] 0.003 | [4] -0.013 | [5] -0.007

UBE2R2 (UniProt Q712K3)
inactive: [1] 0.036 | [2] 0.048 | [3] -0.044 | [4] -0.031 | [5] -0.006

Fetched one by one from the list above (2):
TXNRD2 (UniProt Q9NNW7)
inactive: [1] -0.016 | [2] 0.125 | [3] -0.025 | [4] 0.029 | [5] 0.023

TUFM (UniProt P49411)
inactive: [1] 0.016 | [2] -0.175 | [3] 0.045 | [4] 0.013 | [5] 0.027

Further records

UBE2A (UniProt P49459)
inactive: [1] 0 | [2] 0.093 | [3] -0.029 | [4] 0.008 | [5] 0.024

UBC (UniProt P0CG48)
inactive: [1] 0.035 | [2] 0.207 | [3] -0.009 | [4] 0.063 | [5] -0.004

UBLCP1 (UniProt Q8WVY7)
inactive: [1] -0.143 | [2] -0.017 | [3] 0.032 | [4] -0.016 | [5] 0.004

UBE2S (UniProt Q16763)
inactive: [1] 0.015 | [2] -0.13 | [3] -0.001 | [4] 0.018 | [5] 0.01

U2AF2 (UniProt P26368)
inactive: [1] 0.012 | [2] 0.154 | [3] -0.081 | [4] 0.006 | [5] -0.003

TUSC3 isoform 2 (UniProt Q13454)
inactive: [1] 0.026 | [2] 0.136 | [3] 0.024 | [4] 0.009 | [5] -0.05

UBA3 (UniProt Q8TBC4)
inactive: [1] 0.001 | [2] -0.202 | [3] 0.023 | [4] -0.029 | [5] 0

UBE3A (UniProt Q05086)
inactive: [1] 0.018 | [2] -0.006 | [3] 0.008 | [4] -0.001 | [5] 0.003

TXN (UniProt P10599)
inactive: [1] -0.013 | [2] -0.027 | [3] 0.002 | [4] 0.027 | [5] -0.02

UBE2J1 (UniProt Q9Y385)
inactive: [1] -0.099 | [2] 0.042 | [3] -0.016 | [4] 0.02 | [5] -0.027

UBIAD1 (UniProt Q9Y5Z9)
inactive: [1] -0.061 | [2] 0.042 | [3] 0.04 | [4] 0.032 | [5] 0.058

TWISTNB (UniProt Q3B726)
inactive: [1] -0.06 | [2] -0.067 | [3] 0.027 | [4] 0.015 | [5] 0.052

UBE2NL (UniProt Q5JXB2)
inactive: [1] -0.054 | [2] 0.123 | [3] 0.01 | [4] 0 | [5] -0.034

TWSG1 (UniProt Q9GZX9)
inactive: [1] 0.006 | [2] 0.085 | [3] -0.037 | [4] -0.048 | [5] 0.09

TUBB3 (UniProt Q13509)
inactive: [1] -0.012 | [3] 0.04 | [4] 0.006 | [5] -0.002
active: [2] -0.688

TUBB (UniProt P07437)
active: [2] -0.529
inactive: [1] 0.025 | [3] 0.009 | [4] 0.032 | [5] -0.018

UBE2Q1 (UniProt Q7Z7E8)
inactive: [1] 0.032 | [2] -0.058 | [3] 0.043 | [4] 0.009 | [5] -0.002

UBAP2 (UniProt Q5T6F2)
inactive: [1] 0.031 | [2] 0.03 | [3] -0.007 | [4] 0 | [5] -0.013

UBL7 (UniProt Q96S82)
inactive: [1] -0.033 | [2] 0.135 | [3] -0.019 | [4] -0.022 | [5] -0.149

UCK2 (UniProt Q9BZX2)
inactive: [1] -0.051 | [2] -0.171 | [3] -0.022 | [4] -0.025 | [5] 0.023

UBE2M (UniProt P61081)
inactive: [1] -0.012 | [2] 0.04 | [3] 0.016 | [4] 0.023 | [5] 0.007

TYMS (UniProt P04818)
active: [2] -0.231
inactive: [1] -0.02 | [3] 0.009 | [4] -0.005 | [5] 0.031

TUBB6 (UniProt Q9BUF5)
inactive: [1] 0.013 | [3] 0.04 | [4] 0.013 | [5] 0.004
active: [2] -0.558

UBN2 (UniProt Q6ZU65)
inactive: [1] 0.265 | [2] -0.164 | [3] 0.036 | [4] -0.186 | [5] 0.075

UBXN4 (UniProt Q92575)
inactive: [1] 0.036 | [2] -0.124 | [3] 0.024 | [4] -0.021 | [5] -0.117

TUBGCP2 isoform 4 (UniProt Q9BSJ2)
active: [2] -0.32
inactive: [1] 0.03 | [3] 0.051 | [4] 0.046 | [5] 0.042

TUBE1 (UniProt Q9UJT0)
active: [2] -0.264
inactive: [1] 0.024 | [3] -0.049 | [4] -0.036 | [5] -0.027

UBE3C (UniProt Q15386)
inactive: [1] -0.009 | [3] -0.001 | [4] 0 | [5] 0.05
active: [2] -0.479
